One substance from article PMC5824420 can be followed below.

Sequences of proteins named here, by UniProt entry; tags and fusion partners are left off.
UniProt P03466: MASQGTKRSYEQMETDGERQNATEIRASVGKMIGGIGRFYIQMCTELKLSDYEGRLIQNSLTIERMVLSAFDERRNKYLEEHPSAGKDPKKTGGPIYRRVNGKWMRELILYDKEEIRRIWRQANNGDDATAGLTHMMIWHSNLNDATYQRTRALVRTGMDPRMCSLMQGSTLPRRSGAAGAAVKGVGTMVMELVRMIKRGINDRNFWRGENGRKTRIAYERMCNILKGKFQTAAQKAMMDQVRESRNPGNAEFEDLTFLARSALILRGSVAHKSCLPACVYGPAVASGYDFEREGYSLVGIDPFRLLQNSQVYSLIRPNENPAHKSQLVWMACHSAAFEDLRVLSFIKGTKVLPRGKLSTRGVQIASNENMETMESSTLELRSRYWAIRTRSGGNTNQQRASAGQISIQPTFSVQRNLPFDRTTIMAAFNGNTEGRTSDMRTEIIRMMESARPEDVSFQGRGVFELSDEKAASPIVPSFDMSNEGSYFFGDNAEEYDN
UniProt O14980: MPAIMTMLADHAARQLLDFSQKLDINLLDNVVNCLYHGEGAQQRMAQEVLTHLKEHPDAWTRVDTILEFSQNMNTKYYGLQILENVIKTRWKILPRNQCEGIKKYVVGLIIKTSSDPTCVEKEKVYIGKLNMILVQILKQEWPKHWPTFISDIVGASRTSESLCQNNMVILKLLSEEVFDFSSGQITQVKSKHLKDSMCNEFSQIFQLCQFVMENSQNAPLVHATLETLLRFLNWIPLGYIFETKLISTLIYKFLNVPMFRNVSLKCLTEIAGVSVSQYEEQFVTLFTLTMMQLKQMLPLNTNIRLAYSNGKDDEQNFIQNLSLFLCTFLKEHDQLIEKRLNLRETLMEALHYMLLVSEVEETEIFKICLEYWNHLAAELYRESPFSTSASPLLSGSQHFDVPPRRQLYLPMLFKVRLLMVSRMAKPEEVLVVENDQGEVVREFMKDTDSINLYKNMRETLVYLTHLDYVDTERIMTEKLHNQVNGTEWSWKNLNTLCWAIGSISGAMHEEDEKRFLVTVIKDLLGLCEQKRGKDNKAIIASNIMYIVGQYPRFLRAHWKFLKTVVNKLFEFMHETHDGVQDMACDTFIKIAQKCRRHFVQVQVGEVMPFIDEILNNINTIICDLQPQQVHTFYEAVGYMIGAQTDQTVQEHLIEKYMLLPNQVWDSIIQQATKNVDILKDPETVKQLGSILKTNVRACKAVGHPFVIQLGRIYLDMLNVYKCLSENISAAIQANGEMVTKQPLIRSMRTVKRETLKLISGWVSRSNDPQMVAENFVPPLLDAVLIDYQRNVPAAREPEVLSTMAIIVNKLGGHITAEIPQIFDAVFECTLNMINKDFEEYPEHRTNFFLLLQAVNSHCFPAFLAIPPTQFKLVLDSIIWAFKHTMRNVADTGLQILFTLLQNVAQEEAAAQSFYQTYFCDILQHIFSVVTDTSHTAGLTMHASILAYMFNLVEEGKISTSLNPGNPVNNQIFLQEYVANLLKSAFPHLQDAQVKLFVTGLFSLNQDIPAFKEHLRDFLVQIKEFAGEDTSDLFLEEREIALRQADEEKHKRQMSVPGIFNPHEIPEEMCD

The target in this assay is influenza A/PR/8/34 (H1N1) virus nucleoprotein (NP) (influenza A/PR/8/34 (H1N1) virus) (UniProt P03466). Put plainly: co-IP.

No constants are given. Whether binding was seen depends on the method and setting. In cells and extracts the contact can be indirect. Some results given as binding are weak or reduced against the parent protein; the word gives no strength.

In the case of CRM1 (from UniProt O14980 1-1071), the binding result is recorded as “binds”.
